Reference: patent EP2664619B1, “Purine derivatives as tools for screening anti-Alzheimer compounds” (Manros Therapeutics, priority 2012, dated 2013)

Tested on: Aβ42 production
Assay: Sandwich ELISA measurement of Aβ42 levels in supernatant of treated N2a-APP695 cells
Format: cell-based
Details: Mus musculus, 18 h, read-out: EC50 (µM) at inducing Aβ42 production
Experimental: Mouse neuroblastoma cells (N2a cells) or N2a-APP695 cells (N2a cell line stably transfected with APP695, an amyloid precursor protein) were cultured in an essential medium composed of Dulbecco's minimal essential medium (DMEM) and of OptiMEM® (1:1, v/v) (Gibco®) containing 0.2 mg/mL Geniticin (Geneticin® Selective Antibiotic, Gibco®) and 5 % fetal bovine serum (FBS, Gibco®, EU approved origin) in a humidified, 5% CO2 incubator at 37°C. Routinely, cells were split without use of Trypsin every 4/5 days. They were first rinsed with PBS (Gibco) and detached from the plate bottom using 4 mL Versene (Gibco) at room temperature for 3-4 min. […]
The N2a-APP695 cells were seeded at 10.000 cells/well in a 96 well plate with modified media (0.5% FBS) and incubated overnight. Cells were treated with fresh media comprising different compounds according to the invention (equal quantity of DMSO sold by Sigma®). […]
Then, Aβ38, Aβ40 and Aβ42 levels were measured in a sandwich ELISA (Enzyme-Linked ImmunoSorbent Assay) using a combination of monoclonal antibody 6E10 (mAb 6E10) (sold by Covance® under the reference SIG-39320) and biotinylated polyclonal Aβ38, Aβ40 or Aβ42 antibodies (provided by Dr. P.D. Mehta, IBR, Staten Island, USA). […]
The optical density was finally measured at 490 nm in a microELISA reader (sold by BioTek Instrument, reference E1 800, Gen 5 software). […]

CC[C@H](CO)Nc1nc(NCc2ccccc2)c2ncn(C(C)C)c2n1 [Compound 2, reference compound]
EC50: 100 µM
